# According to PubChem BioAssay AID504467 (National Center for Advancing Translational Sciences (NCATS), 2011):
# Screen size: about 330,000 compounds; about 7,700 (2.3%) were called active. Inconclusive results, whose numbers are uncertain, are shown with a selection of clear calls. Calls come from the whole dose curve; as a rule, active = well fitted inhibition curve with a large enough effect; inconclusive = small, poorly fitted or top-dose-only effect, or effect the other way; inactive = flat fitted curve, though single readings scatter. Where the call is inconclusive, the potency comes from a doubtful curve fit.
# Assay: qHTS screen for small molecules that inhibit ELG1-dependent DNA repair in human embryonic kidney (HEK293T) cells expressing luciferase-tagged ELG1; note: nearly all actives have a fitted effect of over 55% in size
# Conditions: HEK293T ELG1-luciferase reporter, luminescence, 16 h, DNA damage induced by 5-fluorouridine; series mostly up to 46.1 µM
# Procedure, shortened: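 DMSO vehicle served as the neutral condition. Each well held 2,000 cells given 5-fluorouridine plus compound; after 16 hr at 37 °C/5% CO2, ONE-Glo was added and luciferase measured 30 min later.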
# Potency is the fitted concentration of half-maximal effect.
row,Structure (SMILES),Potency
1,Nc1c(C(=O)Nc2ccc(F)cc2)nnn1-c1cccc(C(F)(F)F)c1,inactive
2,CCCCCCCn1c2c(c(=N)c3c1CCC3)CCCC2,"inconclusive: 0.82 µM [inhibitor, full curve]"
3,OCCNCC(O)Cn1ccc2ccccc21 (stereo unspecified),"inconclusive: 16.4 µM [activator, partial curve, poor fit]"
4,O=C(Nc1ccc(Cl)cc1)c1cccc(NC2=NC3CS(=O)(=O)CC3S2)c1 (stereo unspecified),inactive
5,Cc1ccc(C(=O)N/C(=C\c2ccccc2)C(=O)NCCN2CCOCC2)cc1,inactive
6,C=CCn1cnc2c(oc3ccccc32)c1=O,"inconclusive: 8.2 µM [activator, partial curve]"
7,CC(C(=O)NCC1CCCCC1)N1CCN(S(=O)(=O)c2cccs2)CC1 (stereo unspecified),inactive
8,Cc1cccc(C)c1OCC(=O)Nc1cccc(-c2nnc(-c3ccccc3)o2)c1,"inconclusive: 23.1 µM [inhibitor, single point]"
9,CCN(CC(=O)Nc1c(F)cccc1F)C(=O)c1ccc(C#N)cc1,inactive
10,COCCNC(=S)NN(c1ccccc1)c1ccccc1,inactive
11,CCCCOc1ccc(C(=O)NCC(=O)N2CC=C(c3ccccc3)CC2)cc1,inactive
12,Cc1c(NS(=O)(=O)c2ccc(N(C)C3CCCCC3)c([N+](=O)[O-])c2)c(=O)n(-c2ccccc2)n1C,inactive
13,CN(C)CCNc1ccc(-c2nn(C)c(=O)c3ccccc23)cc1[N+](=O)[O-],"inconclusive: 18.3 µM [activator, partial curve, poor fit]"
14,CCc1cc2c(=O)c(-c3cnn(-c4ccccc4)c3)c(C)oc2c(CN2CCCCC2)c1O,inactive
15,COC(=O)c1ccccc1NC(=O)C1CCN(C(=O)c2cc(OC)c(OC)c(OC)c2)CC1,"inconclusive: 20.6 µM [inhibitor, partial curve]"
16,Cc1ccc(C2(CCNCc3ccc(N(C)C)cc3)CCOC(C(C)C)C2)cc1 (stereo unspecified),"inconclusive: 29.1 µM [inhibitor, partial curve, poor fit]"
17,CCc1cc(C(=O)OC)c(NC(=O)C2CC(=O)NN2Cc2ccccc2)s1 (stereo unspecified),"inconclusive: 25.9 µM [activator, single point]"
18,O=c1[nH]c2ccccc2cc1CN(Cc1cccnc1)S(=O)(=O)c1ccc(Cl)cc1,"inconclusive: 29.1 µM [inhibitor, single point]"
19,CCCCNc1nnc(SCC(=O)N2CCN(S(=O)(=O)c3ccc4ccccc4c3)CC2)s1,active: 23.1 µM
20,COc1cc(C(=O)Nc2c(C(=O)O)[nH]c3ccc(Br)cc23)cc(OC)c1OC,inactive
21,Cn1nccc1C(=O)N/N=C/c1c(O)ccc2ccccc12,"inconclusive: 7.3 µM [inhibitor, single point]"

# An excerpt from above in order of count of non-hydrogen atoms, low to high:
row,Structure (SMILES),Potency
10,COCCNC(=S)NN(c1ccccc1)c1ccccc1,inactive
20,COc1cc(C(=O)Nc2c(C(=O)O)[nH]c3ccc(Br)cc23)cc(OC)c1OC,inactive
15,COC(=O)c1ccccc1NC(=O)C1CCN(C(=O)c2cc(OC)c(OC)c(OC)c2)CC1,"inconclusive: 20.6 µM [inhibitor, partial curve]"
